Source: the supplement of paper PMC12067093, “Discovery and optimisation of a covalent ligand for TRIM25 and its application to targeted protein ubiquitination” (Chemical Science, 2025)
The other results are listed elsewhere or left out.

Compound: Cc1cc(ccc1-c1ccccc1)C(=O)N1CCCN(CC1)C(=O)CCl [compound 10]
Experiment: probe-labelled cysteine peptide fold change vs DMSO (competition) (log2 fold change); higher = less target engagement (more negative = stronger competition)
Details: THP-1, incubation time: 4 h
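Note: competitive profiling in live THP-1 cells: cysteine peptides tagged with an iodoacetamide desthiobiotin (IA-DTB) probe, intensity after compound treatment relative to DMSO-treated cells.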

| Target | probe-labelled cysteine peptide fold change (10 µM) | probe-labelled cysteine peptide fold change (50 µM) |
| --- | --- | --- |
| HSD17B10_Q99714_58_KLGNNCVFAPADVTSEK (UniProt Q99714) | 0.0538 | 0.0693 |
| HPRT1_P00492_23_SPGVVISDDEPGYDLDLFCIPNHYAEDLER (UniProt P00492) | -0.297 | -0.173 |
| HNRNPM_P52272_114_GCAVVEFK (UniProt P52272) | 0.0727 | 0.0923 |
| HNRNPD_Q14103_226_RGFCFITFK (UniProt Q14103) | 0.129 | 0.13 |
| HPS1_Q92902_165_EQEQCFAVEALER (UniProt Q92902) | 0.0503 | 0.389 |
| HSD17B10_Q99714_91_VDVAVNCAGIAVASK (UniProt Q99714) | 0.0196 | 0.0597 |
| HTATSF1_O43719_328_DPEEADYCIQTLDGR (UniProt O43719) | 0.128 | 0.314 |
| HSPA4L_O95757_213_NVVFIDMGHSAYQVLVCAFNK (UniProt O95757) | 0.158 | 0.279 |
| HTATSF1_O43719_295_NMFHPMDFEDDPLVLNEIREDLRVECSK (UniProt O43719) | -0.0251 | -0.488 |
| HNRNPDL_O14979_277_GFCFITYTDEEPVK (UniProt O14979) | 0.258 | 0.0355 |
| HSPA9_P38646_66_GAVVGIDLGTTNSCVAVMEGK (UniProt P38646) | -0.141 | 0.0641 |
| HMOX2_P30519_127_DMEYFFGENWEEQVQCPK (UniProt P30519) | -0.0262 | 0.237 |
| HSPA4_P34932_140+146_KPVVDCVVSVPCFYTDAERR (UniProt P34932) | -0.0948 | -0.274 |
| HSP90AB1_P08238_521_GFEVVYMTEPIDEYCVQQLK (UniProt P08238) | -0.0263 |  |
| HSPA4L_O95757_38_CTPACISLGSR (UniProt O95757) | 0.225 | 0.07 |
| HOXA11_P31270_82_GNLAHCYSAEELVHR (UniProt P31270) | 0.0231 | 0.0767 |
| HNRNPDL_O14979_277_RGFCFITYTDEEPVK (UniProt O14979) | 0.288 | -0.138 |
| HSPA4_P34932_245_KFDEVLVNHFCEEFGK (UniProt P34932) | 0.00761 | -0.00421 |
| HTATSF1_O43719_186_GDGLCCYLK (UniProt O43719) | -0.216 | -0.205 |
| HSD17B4_P51659_425_LKCEAVVADVLDK (UniProt P51659) | -0.0619 | 0.114 |
| HNRNPR_O43390_292_GFCFLEYEDHK (UniProt O43390) | 0.0419 | 0.0189 |

| Target | probe-labelled cysteine peptide fold change (10 µM) | probe-labelled cysteine peptide fold change (50 µM) |
| --- | --- | --- |
| HNRNPL_P14866_260_ASLNGADIYSGCCTLK (UniProt P14866) | 0.134 | -0.186 |
| HNRNPK_P61978_184+185_LFQECCPHSTDR (UniProt P61978) | 0.0492 | -0.501 |
| HNRNPR_O43390_214_GYAFITFCGK (UniProt O43390) | -0.0464 | -0.0135 |
| HPS3_Q969F9_254_TEEGISNEISQLESDDFVICQK (UniProt Q969F9) | -0.36 | -0.219 |
| HSPH1_Q92598_167_SVLDAAQIVGLNCLR (UniProt Q92598) | 0.109 | 0.284 |
| HSP90AA1_P07900_597+598_LVTSPCCIVTSTYGWTANMER (UniProt P07900) | 0.115 | -0.354 |
| HP1BP3_Q5SSJ5_359_TCSTTALK (UniProt Q5SSJ5) | -0.118 | 0.02 |
| HNRNPUL2_Q1KMD3_518_DLLVQQASQCLSK (UniProt Q1KMD3) | 0.0636 | 0.153 |
| HPF1_Q9NWY4_60_FCEELDPEK (UniProt Q9NWY4) | 0.38 | 0.515 |
| HPDL_Q96IR7_168_VDHLTLACTPGSSPTLLR (UniProt Q96IR7) | -0.032 | -0.309 |
| HSPA4_P34932_779_ELTSTCSPIISKPK (UniProt P34932) | -0.0433 | -0.665 |
| HTT_P42858_636_NMSHCR (UniProt P42858) | -0.461 | -0.373 |
| HNRNPUL1_Q9BUJ2_421_SKAECEILMMVGLPAAGK (UniProt Q9BUJ2) | 0.0608 | -0.134 |
| HSPA5_P11021_41_EDVGTVVGIDLGTTYSCVGVFK (UniProt P11021) | 0.237 | 0.632 |
| HSPA4_P34932_146_KPVVDCVVSVPCFYTDAER (UniProt P34932) | -0.0289 | 0.112 |
| HNRNPU_Q00839_389+391_TCNCETEDYGEK (UniProt Q00839) | -0.00884 | -0.129 |
| HSD17B11_Q8NBQ5_215+217_TTCLCPNFVNTGFIK (UniProt Q8NBQ5) | 0.115 | -0.449 |
| HSPA5_P11021_41_KEDVGTVVGIDLGTTYSCVGVFK (UniProt P11021) | 0.209 | 0.548 |
| HNRNPK_P61978_184_LFQECCPHSTDR (UniProt P61978) | -0.00384 | -0.203 |
| HNRNPLL_Q8WVV9_474_LCNDHEVLTFIK (UniProt Q8WVV9) | 0.0891 | 0.0285 |
| HNRNPUL2_Q1KMD3_405_ALLPHVLCK (UniProt Q1KMD3) | 0.0881 | -0.103 |

| Target | probe-labelled cysteine peptide fold change (10 µM) | probe-labelled cysteine peptide fold change (50 µM) |
| --- | --- | --- |
| HNRNPA2B1_P22626_50_LTDCVVMRDPASK (UniProt P22626) | 0.0621 | 0.169 |
| HSPA8_P11142_17_GPAVGIDLGTTYSCVGVFQHGK (UniProt P11142) | 0.177 | 0.113 |
| HNRNPDL_O14979_277_RGFCFITYTDEEPVKK (UniProt O14979) | 0.232 | -0.27 |
| HNRNPLL_Q8WVV9_357_VFNLFCLYGNIEK (UniProt Q8WVV9) | 0.0942 | 0.116 |
| HNRNPL_P14866_521_IQHPSNVLHFFNAPLEVTEENFFEICDELGVK (UniProt P14866) | 0.092 | 0.207 |
| HNRNPLL_Q8WVV9_505_TLSGLLEWECKTDAVEALTALNHYQIR (UniProt Q8WVV9) | -0.0924 | -0.402 |
| HSPH1_Q92598_796_ELNNTCEPVVTQPK (UniProt Q92598) | 0.219 | 0.0465 |
| HSPH1_Q92598_650_LCGPYEK (UniProt Q92598) | 0.134 | 0.0317 |
| HSPA9_P38646_317_CELSSSVQTDINLPYLTMDSSGPK (UniProt P38646) | 0.0304 | 0.137 |
| HSPA14_Q0VDF9_492_DGSLHVTCTDQETGK (UniProt Q0VDF9) | -0.0228 | -0.00701 |
| HNRNPLL_Q8WVV9_84_GLCESVVEADLVEALEK (UniProt Q8WVV9) | -0.215 | -0.18 |
| HRAS_P01112_80_TGEGFLCVFAINNTK (UniProt P01112) | 0.0966 | 0.305 |
| HSPH1_Q92598_310_SQFEELCAELLQK (UniProt Q92598) | -0.0659 | 0.0349 |
| HSPA14_Q0VDF9_394_ENLLVEDSLMIECSAR (UniProt Q0VDF9) | -0.517 | 0.513 |
| HSPH1_Q92598_140_KPVTDCVISVPSFFTDAERR (UniProt Q92598) | -0.0465 | 0.116 |
| HNRNPU_Q00839_391_TCNCETEDYGEK (UniProt Q00839) | 0.325 | 0.595 |
| HSPD1_P10809_442_AAVEEGIVLGGGCALLR (UniProt P10809) | 0.0163 | -0.0109 |
| HNRNPU_Q00839_607_AVVVCPK (UniProt Q00839) | -0.057 | 0.347 |
| HSPBP1_Q9NZL4_341_CQLLQQHEEYQEELEFCEK (UniProt Q9NZL4) | 0.137 | 0.242 |
| HSD17B11_Q8NBQ5_217_TTCLCPNFVNTGFIK (UniProt Q8NBQ5) | 0.0142 | 0.158 |
| HNRNPUL2_Q1KMD3_538_NFILDQCNVYNSGQR (UniProt Q1KMD3) | -0.109 | 0.293 |

Taken from the results shown (four entries):

| Target | probe-labelled cysteine peptide fold change (10 µM) | probe-labelled cysteine peptide fold change (50 µM) |
| --- | --- | --- |
| HNRNPU_Q00839_389+391_TCNCETEDYGEK (UniProt Q00839) | -0.00884 | -0.129 |
| HSD17B11_Q8NBQ5_215+217_TTCLCPNFVNTGFIK (UniProt Q8NBQ5) | 0.115 | -0.449 |
| HSPA5_P11021_41_KEDVGTVVGIDLGTTYSCVGVFK (UniProt P11021) | 0.209 | 0.548 |
| HNRNPK_P61978_184_LFQECCPHSTDR (UniProt P61978) | -0.00384 | -0.203 |

The listing continues:

| Target | probe-labelled cysteine peptide fold change (10 µM) | probe-labelled cysteine peptide fold change (50 µM) |
| --- | --- | --- |
| HPS4_Q9NQG7_183_ILQTCQR (UniProt Q9NQG7) | 0.23 | 0.0373 |
| HSPA4_P34932_779_ELTSTCSPIISKPKPK (UniProt P34932) | -0.268 | -0.751 |
| HNRNPL_P14866_404_VFNVFCLYGNVEK (UniProt P14866) | 0.0841 | 0.0754 |
| HSPH1_Q92598_658_FICEQDHQNFLR (UniProt Q92598) | 0.242 | 0.155 |
| HNMT_P50135_31_FLNHSTEHQCMQEFMDKK (UniProt P50135) | -0.174 | -0.501 |
| HNRNPUL1_Q9BUJ2_532_KAIVICPTDEDLK (UniProt Q9BUJ2) | -0.232 | -0.995 |
| HNRNPA1L2_Q32P51_175_GHNCEVR (UniProt Q32P51) | 0.196 | 0.502 |
| HSF1_Q00613_378_CLSVACLDK (UniProt Q00613) | -0.219 | -0.54 |
| HNRNPUL1_Q9BUJ2_391_AEPYCSVLPGFTFIQHLPLSER (UniProt Q9BUJ2) | -0.1 | -0.129 |
| HSPA2_P54652_191_KGCAGGEK (UniProt P54652) | -0.0292 | -0.297 |
| HPS3_Q969F9_831_TSEDLINACSHYGLIYPWVHVVISSDSLADK (UniProt Q969F9) | 0.0684 | 0.149 |
| HSPA4_P34932_417_WNSPAEEGSSDCEVFSK (UniProt P34932) | -0.232 | -0.145 |
| HPDL_Q96IR7_9_LCHIAFHVPAGQPLAR (UniProt Q96IR7) | -0.0155 | -0.111 |
| HSPD1_P10809_447_CIPALDSLTPANEDQK (UniProt P10809) | 0.156 | -0.0295 |
| HSPBP1_Q9NZL4_348_LLQTCFSSPADDSMDR (UniProt Q9NZL4) | 0.0573 | -0.0872 |
| HNRNPUL2_Q1KMD3_57_LQEALDAEMLEDEAGGGGAGPGGACK (UniProt Q1KMD3) | -0.00448 | -0.306 |
| HNRNPA3_P51991_94_GFGFVTYSCVEEVDAAMCARPHK (UniProt P51991) | -0.0321 | -0.229 |
| HSD17B4_P51659_425_CEAVVADVLDK (UniProt P51659) | 0.0224 | 0.443 |
| HSPA4L_O95757_540_CHAEHTPEEEIDHTGAK (UniProt O95757) | -0.0538 | -0.483 |
| HNRNPU_Q00839_594_MCLFAGFQR (UniProt Q00839) | -0.0812 | -0.0999 |
